Values from PubChem BioAssay AID504804 (Drosophila RNAi Screening Center, 2011).
In all, the deposit lists about 19,000 reagents; shown is an unselected part of those with a known target gene and a result. Over the whole deposit, 47 (0.25%) are marked active. 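Signals are raw, not normalised; exact z-scores behind calls not deposited; actives needed confirmation, so some wells reaching 2 SD are inactive.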 The numbers tell different reagents against one gene apart. A plus sign joins genes that one reagent is predicted to hit. Reagent sequences are not shown.

Assay: 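dsRNAs that improve Kc cell survival under doxorubicin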 (primary screen)
Cells: Drosophila Kc cells
Knock-down reagent: long dsRNA against Drosophila genes, 0.5 µg dsRNA per well
Timing: 96 h (48 h knock-down, then 48 h drug)
Treatment: doxorubicin 5 µg/ml for 48 h, added 48 h after dsRNA
Measured: 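Viability measured as cellular ATP by luminescence after 48 h knock-down then 48 h doxorubicin at 5 µg/ml; unnormalised plate counts for each replicate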
Scale: raw ATP luminescence: higher = more viable cells, protection from doxorubicin
Active means: 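Active when both duplicate wells lie at least 2 SD above the plate mean and protection is confirmed by rescreening and independent dsRNAs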

| Target gene | reagent | raw ATP luminescence, replicate 1 | raw ATP luminescence, replicate 2 | outcome |
| --- | --- | --- | --- | --- |
| Ucp4A | 1 | 3.87e5 | 3.20e5 | inactive |
| GXIVsPLA2 | 1 | 39517 | 39303 | inactive |
| CG34160 | 1 | 2.85e5 | 3.11e5 | inactive |
| CG4613 | 1 | 66937 | 48557 | inactive |
| Glyp | 1 | 1.27e5 | 1.21e5 | inactive |
| CG1737 | 1 | 2.11e5 | 2.31e5 | inactive |
| CG1889 + CG43386 | 1 | 3.44e5 | 3.44e5 | inactive |
| ast | 1 | 1.09e5 | 97960 | inactive |
| Rel | 1 | 44077 | 42380 | inactive |
| CG10555 | 1 | 21370 | 26290 | inactive |
| scpr-A + scpr-C | 1 | 63180 | 36393 | inactive |
| Aldh7A1 | 1 | 25833 | 24470 | inactive |
| Gr59b | 1 | 48367 | 69693 | inactive |
| Proc | 1 | 10517 | 13770 | inactive |
| CG17258 | 1 | 19560 | 19503 | inactive |
| kz | 1 | 70760 | 54050 | inactive |
| Rab9Db + Rab9D + Rab9Fa + 1 more | 1 | 1.81e5 | 2.12e5 | inactive |
| Snx17 | 1 | 87563 | 58333 | inactive |
| Cand1 | 1 | 92897 | 55583 | inactive |
| vrs | 1 | 47497 | 54233 | inactive |
| Rift | 1 | 46600 | 55370 | inactive |
| CG15930 | 1 | 39130 | 51030 | inactive |
| Orct2 | 1 | 52320 | 54580 | inactive |
| CG12107 | 1 | 81853 | 68467 | inactive |
| Polr1F | 1 | 1.00e5 | 53457 | inactive |
| gudu | 1 | 26823 | 30430 | inactive |
| CG18542 + CG32939 | 1 | 56367 | 35697 | inactive |
| Fur2 | 1 | 2.65e5 | 2.66e5 | inactive |
| CG7988 | 1 | 67950 | 87440 | inactive |
| RhoGAP71E | 1 | 30403 | 19937 | inactive |
| RhoGAP71E | 2 | 28487 | 29230 | inactive |
| RhoGAP71E | 3 | 74183 | 75353 | inactive |
| Pis | 1 | 3.75e5 | 3.24e5 | inactive |
| CG11710 | 1 | 4.01e5 | 3.52e5 | inactive |
| CycY | 1 | 87360 | 75770 | inactive |
| Hsp67Bc | 1 | 78040 | 80053 | inactive |
| CG14820 | 1 | 74277 | 74163 | inactive |
| CG12517 | 1 | 39223 | 66053 | inactive |
| Nepl18 | 1 | 60600 | 55290 | inactive |
| CG11630 | 1 | 57913 | 55987 | inactive |
| CR33317 | 1 | 49817 | 44713 | inactive |
| CG12133 | 1 | 32993 | 1.03e5 | inactive |
| mAChR-A | 1 | 67937 | 63530 | inactive |
| CG34398 | 1 | 3.11e5 | 3.15e5 | inactive |
| CG34398 | 2 | 34753 | 44357 | inactive |
| CG34398 | 3 | 40223 | 34113 | inactive |
| CG34398 | 4 | 20143 | 33417 | inactive |
| ND-39 | 1 | 23790 | 28143 | inactive |
| CG32727 | 1 | 1.76e5 | 1.61e5 | inactive |
| PpV | 1 | 24500 | 35250 | inactive |
| Srg1 | 1 | 60540 | 63000 | inactive |
| Gar1 | 1 | 49890 | 34530 | inactive |
| NijC | 1 | 53160 | 53603 | inactive |
| CG10344 | 1 | 49320 | 44243 | inactive |
| tea | 1 | 81030 | 59657 | inactive |
| tea | 2 | 45803 | 81580 | inactive |
| Gpat4 | 1 | 50957 | 55330 | inactive |
